Results are given in words; binding and its absence hold for the method and conditions named. Binding seen in cells or lysates may run through a third protein. A yes stands for co-enrichment or nearness to the bait. Other partners may have been found.
Molecular target: Flag-RUNX2 (WT) (human)
Assay: affinity purification with mass spectrometry; Flag-RUNX2-WT (1 ug plasmid) or Flag-RUNX2-Tri-A (2 ug plasmid) in HEK293T cells, 48 h; Flag-conjugated agarose, eluted with Flag peptide; eluates to mass spectrometry

- binding: binds
B1: USP47 (endogenous, HEK293T) (enzyme, UniProt Q96K76 1-1375)
chain: MVPGEENQLVPKEDVFWRCRQNIFDEMKKKFLQIENAAEEPRVLCIIQDTTNSKTVNERITLNLPASTPVRKLFEDVANKVGYINGTFDLVWGNGINTADMAPLDHTSDKSLLDANFEPGKKNFLHLTDKDGEQPQILLEDSSAGEDSVHDRFIGPLPREGSGGSTSDYVSQSYSYSSILNKSETGYVGLVNQAMTCYLNSLLQTLFMTPEFRNALYKWEFEESEEDPVTSIPYQLQRLFVLLQTSKKRAIETTDVTRSFGWDSSEAWQQHDVQELCRVMFDALEQKWKQTEQADLINELYQGKLKDYVRCLECGYEGWRIDTYLDIPLVIRPYGSSQAFASVEEALHAFIQPEILDGPNQYFCERCKKKCDARKGLRFLHFPYLLTLQLKRFDFDYTTMHRIKLNDRMTFPEELDMSTFIDVEDEKSPQTESCTDSGAENEGSCHSDQMSNDFSNDDGVDEGICLETNSGTEKISKSGLEKNSLIYELFSVMVHSGSAAGGHYYACIKSFSDEQWYSFNDQHVSRITQEDIKKTHGGSSGSRGYYSSAFASSTNAYMLIYRLKDPARNAKFLEVDEYPEHIKNLVQKERELEEQEKRQREIERNTCKIKLFCLHPTKQVMMENKLEVHKDKTLKEAVEMAYKMMDLEEVIPLDCCRLVKYDEFHDYLERSYEGEEDTPMGLLLGGVKSTYMFDLLLETRKPDQVFQSYKPGEVMVKVHVVDLKAESVAAPITVRAYLNQTVTEFKQLISKAIHLPAETMRIVLERCYNDLRLLSVSSKTLKAEGFFRSNKVFVESSETLDYQMAFADSHLWKLLDRHANTIRLFVLLPEQSPVSYSKRTAYQKAGGDSGNVDDDCERVKGPVGSLKSVEAILEESTEKLKSLSLQQQQDGDNGDSSKSTETSDFENIESPLNERDSSASVDNRELEQHIQTSDPENFQSEERSDSDVNNDRSTSSVDSDILSSSHSSDTLCNADNAQIPLANGLDSHSITSSRRTKANEGKKETWDTAEEDSGTDSEYDESGKSRGEMQYMYFKAEPYAADEGSGEGHKWLMVHVDKRITLAAFKQHLEPFVGVLSSHFKVFRVYASNQEFESVRLNETLSSFSDDNKITIRLGRALKKGEYRVKVYQLLVNEQEPCKFLLDAVFAKGMTVRQSKEELIPQLREQCGLELSIDRFRLRKKTWKNPGTVFLDYHIYEEDINISSNWEVFLEVLDGVEKMKSMSQLAVLSRRWKPSEMKLDPFQEVVLESSSVDELREKLSEISGIPLDDIEFAKGRGTFPCDISVLDIHQDLDWNPKVSTLNVWPLYICDDGAVIFYRDKTEELMELTDEQRNELMKKESSRLQKTGHRVTYSPRKEKALKIYLDGAPNKDLTQD
